Several values for one entry are separate records, joined by “and”; a condition that tells them apart may be missing. Identical values can stand only once. The list shows a part of the results. Each value is one well over the wells without odorant, computed here; the data are noisy.
Tested on: OR10A2 H43R/H207R/K258T clone 1498
Experiment: odorant receptor activation (CRE luciferase / Renilla) (fold of no-odor wells); higher = more activation
Conditions: 100 µM

Structure (SMILES) | odorant receptor activation
CCOc1cc(C=O)ccc1O [ethyl vanillin] | 1.31 and 2.38 and 1.29
CCC(C)=O [2-butanone] | 0.926
CS [methanethiol] | 0.922
CCCCOC(C)=O [butyl acetate] | 0.948

Tested on: OR10A2 clone 1171
Experiment: as above
Conditions: 100 µM

Structure (SMILES) | odorant receptor activation
CCOc1cc(C=O)ccc1O [ethyl vanillin] | 2.13 and 0.984
CCC(C)=O [2-butanone] | 0.889
CS [methanethiol] | 0.843
CCCCOC(C)=O [butyl acetate] | 1.08

Tested on: OR10A3 clone 1416
Experiment: as above
Conditions: 100 µM

Structure (SMILES) | odorant receptor activation
CCOc1cc(C=O)ccc1O [ethyl vanillin] | 1.29 and 1.31
CCC(C)=O [2-butanone] | 1.05
CS [methanethiol] | 0.641
CCCCOC(C)=O [butyl acetate] | 0.126

Tested on: OR10A4 R262Q clone 1538
Experiment: as above
Conditions: 100 µM

Structure (SMILES) | odorant receptor activation
CCOc1cc(C=O)ccc1O [ethyl vanillin] | 1.56
CCC(C)=O [2-butanone] | 1.07
CS [methanethiol] | 0.912
CCCCOC(C)=O [butyl acetate] | 1.03

Tested on: OR10A5 clone 1723
Experiment: as above
Conditions: 100 µM

Structure (SMILES) | odorant receptor activation
CCOc1cc(C=O)ccc1O [ethyl vanillin] | 0.836
CCC(C)=O [2-butanone] | 0.956
CS [methanethiol] | 0.819
CCCCOC(C)=O [butyl acetate] | 0.337

Tested on: OR10A6 clone 1219
Experiment: as above
Conditions: 100 µM

Structure (SMILES) | odorant receptor activation
CCOc1cc(C=O)ccc1O [ethyl vanillin] | 1.78 and 1.42
CCC(C)=O [2-butanone] | 0.504
CS [methanethiol] | 1.02
CCCCOC(C)=O [butyl acetate] | 1.12

Tested on: OR10A7 clone 1252
Experiment: as above
Conditions: 100 µM

Structure (SMILES) | odorant receptor activation
CCOc1cc(C=O)ccc1O [ethyl vanillin] | 1.11 and 1.03
CCC(C)=O [2-butanone] | 1.74
CS [methanethiol] | 0.864
CCCCOC(C)=O [butyl acetate] | 0.825

Tested on: OR10AD1 R166Q/S177N/W198R clone 1524
Experiment: as above
Conditions: 100 µM

Structure (SMILES) | odorant receptor activation
CCOc1cc(C=O)ccc1O [ethyl vanillin] | 1.26 and 2.29 and 1.08
CCC(C)=O [2-butanone] | 1.12
CS [methanethiol] | 0.899
CCCCOC(C)=O [butyl acetate] | 0.931

Tested on: OR10AG1 clone 1251
Experiment: as above
Conditions: 100 µM

Structure (SMILES) | odorant receptor activation
CCOc1cc(C=O)ccc1O [ethyl vanillin] | 1.75 and 0.964
CCC(C)=O [2-butanone] | 2.08
CS [methanethiol] | 0.837
CCCCOC(C)=O [butyl acetate] | 1.09

Tested on: OR10C1 F60L/P174Q/M246V clone 1366
Experiment: as above
Conditions: 100 µM

Structure (SMILES) | odorant receptor activation
CCOc1cc(C=O)ccc1O [ethyl vanillin] | 0.868 and 1.1
CCC(C)=O [2-butanone] | 1.47
CS [methanethiol] | 0.849
CCCCOC(C)=O [butyl acetate] | 0.173

Tested on: OR10C1 clone 1065
Experiment: as above
Conditions: 100 µM

Structure (SMILES) | odorant receptor activation
CCOc1cc(C=O)ccc1O [ethyl vanillin] | 0.784 and 1.32
CCC(C)=O [2-butanone] | 3.38
CS [methanethiol] | 1.05
CCCCOC(C)=O [butyl acetate] | 1.21

Tested on: OR10G3 S73G clone 1272
Experiment: as above
Conditions: 100 µM

Structure (SMILES) | odorant receptor activation
CCC(C)=O [2-butanone] | 1.47
CS [methanethiol] | 0.896
CCCCOC(C)=O [butyl acetate] | 0.772

Tested on: OR10G4 A9V/M134V/V195E/R235G/K295Q clone 1119
Experiment: as above
Conditions: 100 µM

Structure (SMILES) | odorant receptor activation
CCOc1cc(C=O)ccc1O [ethyl vanillin] | 4.1
CCC(C)=O [2-butanone] | 0.786
CS [methanethiol] | 0.983
CCCCOC(C)=O [butyl acetate] | 0.894

Tested on: OR10G6 clone 1108
Experiment: as above
Conditions: 100 µM

Structure (SMILES) | odorant receptor activation
CCOc1cc(C=O)ccc1O [ethyl vanillin] | 1.15 and 1.18
CCC(C)=O [2-butanone] | 24.8
CS [methanethiol] | 0.821
CCCCOC(C)=O [butyl acetate] | 1.23

Tested on: OR10G7 clone 1589
Experiment: as above
Conditions: 100 µM

Structure (SMILES) | odorant receptor activation
CCOc1cc(C=O)ccc1O [ethyl vanillin] | 1.07
CCC(C)=O [2-butanone] | 1.28
CS [methanethiol] | 1.48
CCCCOC(C)=O [butyl acetate] | 0.272

Tested on: OR10G8 clone 1396
Experiment: as above
Conditions: 100 µM

Structure (SMILES) | odorant receptor activation
CCOc1cc(C=O)ccc1O [ethyl vanillin] | 1.03 and 1.21
CCC(C)=O [2-butanone] | 0.792
CS [methanethiol] | 0.977
CCCCOC(C)=O [butyl acetate] | 0.33

Tested on: OR10G9 A90T/M134V clone 1192
Experiment: as above
Conditions: 100 µM

Structure (SMILES) | odorant receptor activation
CCOc1cc(C=O)ccc1O [ethyl vanillin] | 3.23 and 1.38
CCC(C)=O [2-butanone] | 0.845
CS [methanethiol] | 1.03
CCCCOC(C)=O [butyl acetate] | 1.07

Tested on: OR10H1 clone 1291
Experiment: as above
Conditions: 100 µM

Structure (SMILES) | odorant receptor activation
CCOc1cc(C=O)ccc1O [ethyl vanillin] | 2.01 and 1
CCC(C)=O [2-butanone] | 0.87
CS [methanethiol] | 0.876
CCCCOC(C)=O [butyl acetate] | 1.1

Tested on: OR10H2 L40Q clone 1461
Experiment: as above
Conditions: 100 µM

Structure (SMILES) | odorant receptor activation
CCOc1cc(C=O)ccc1O [ethyl vanillin] | 1.44 and 1.94 and 1.25
CCC(C)=O [2-butanone] | 1.16
CS [methanethiol] | 1.01
CCCCOC(C)=O [butyl acetate] | 1.07

Tested on: OR10H3 clone 1525
Experiment: as above
Conditions: 100 µM

Structure (SMILES) | odorant receptor activation
CCOc1cc(C=O)ccc1O [ethyl vanillin] | 1.14 and 2.14 and 1.18
CCC(C)=O [2-butanone] | 1.15
CS [methanethiol] | 0.984
CCCCOC(C)=O [butyl acetate] | 0.846
